From the supplement of paper PMC3682954
Values joined by “and” are separate entries in the source; they are usually repeats but may differ in a detail not shown here. Identical values can stand only once. Counter-ions that a name gives are not always drawn. ± gives the standard deviation of the averaged measurements. This is one part of the list. Most values come without repeats; read them as rough.

System: RAW 264.7
Test: HMGB1-induced TNF-alpha production relative to HMGB1-stimulated control; higher = more TNF-alpha secretion (less inhibition)
Details: stimulus: HMGB1 5 ug/ml, 18 h
[1] = compound concentration: 1 ug/ml

| Structure (SMILES) | HMGB1-induced TNF-alpha production (compound concentration: 3 uM) | HMGB1-induced TNF-alpha production [1] [%] |
| --- | --- | --- |
| O=C(Nc1ccccc1)c1cc([N+](=O)[O-])ccc1Cl | 98% |  |
| Fc1ccc(C(c2ccc(F)cc2)N2CCN(C/C=C/c3ccccc3)CC2)cc1 | 91% |  |
| Fc1ccc(C(c2ccc(F)cc2)N2CCN(C/C=C/c3ccccc3)CC2)cc1 [Flunarizine dihydrochloride] | 75.4 ± 7.7% |  |
| Fc1ccc(C(c2ccc(F)cc2)N2CCN(C/C=C/c3ccccc3)CC2)cc1 [Flunarizine 2HCl] | 92.1% |  |
| CN1CCc2c(c3ccccc3n2Cc2ccccc2)C1 | 65.4% |  |
| O=C(O)c1cc(O)c2c(c1)C(=O)c1cccc(O)c1C2=O [Rhein] |  | 71.2 |
| CC(=O)Nc1cc2ccccc2oc1=O [3-Acetamidocoumarin] | 92.6% |  |
| CCCCC(=O)O[C@H]1CC[C@H]2[C@@H]3CCc4cc(O)ccc4[C@H]3CC[C@]12C | 93.5% |  |
| CCCCC(=O)O[C@H]1CC[C@H]2[C@@H]3CCc4cc(O)ccc4[C@H]3CC[C@]12C [Estradiol Valerate] | 80% |  |
| CCCCC(=O)O[C@H]1CC[C@H]2[C@@H]3CCc4cc(O)ccc4[C@H]3CC[C@]12C [estradiol valerate] |  | 69.3 |
| N=C(N)c1ccc(OCCCCCOc2ccc(C(=N)N)cc2)cc1 | 75.4% |  |
| N=C(N)c1ccc(OCCCCCOc2ccc(C(=N)N)cc2)cc1 [Pentamidine] | 99.4% |  |
| N=C(N)c1ccc(OCCCCCOc2ccc(C(=N)N)cc2)cc1 [Pentamidine isethionate] | 98 ± 21% |  |
| O=C(OC[C@H]1O[C@@H](OC(=O)c2cc(O)c(O)c(OC(=O)c3cc(O)c(O)c(O)c3)c2)[C@H](OC(=O)c2cc(O)c(O)c(OC(=O)c3cc(O)c(O)c(O)c3)c2)[C@@H](OC(=O)c2cc(O)c(O)c(OC(=O)c3cc(O)c(O)c(O)c3)c2)[C@@H]1OC(=O)c1cc(O)c(O)c(OC(=O)c2cc(O)c(O)c(O)c2)c1)c1cc(O)c(O)c(OC(=O)c2cc(O)c(O)c(O)c2)c1 | 128 ± 32% |  |
| COc1ccc2c(CN3CCOCC3)cc(=O)oc2c1 |  | 79.2 |
| Cn1c(NCCN(CCO)CCCc2ccc([N+](=O)[O-])cc2)cc(=O)n(C)c1=O [Nifekalant] | 89.9% |  |
| Cn1c(NCCN(CCO)CCCc2ccc([N+](=O)[O-])cc2)cc(=O)n(C)c1=O | 114% |  |
| O=c1cc(-c2ccccc2O)oc2c(O)c(O)ccc12 |  | 51.2 |
| C[C@H](N)CO | 98.3% |  |
| OCCOCCN1CCN(C2=Nc3ccccc3Sc3ccccc32)CC1 [Quetiapine Fumarate] | 96.9% |  |
| OCCOCCN1CCN(C2=Nc3ccccc3Sc3ccccc32)CC1 | 108% and 95.8% |  |
| OCCOCCN1CCN(C2=Nc3ccccc3Sc3ccccc32)CC1 [Quetiapine] | 73% |  |
